Taken from: PubChem BioAssay AID1259283 (Sanger Institute, 2017)
The deposit covers 794 reagents; this is a random part of them. In the full data, 14 (1.8%) got an active call. 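Calls reflect only viability loss without drug; drug synergy does not enter the call.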 Viability is capped at 1. Not all columns of the deposit are shown. Reagent sequences are not shown. Not stated in the record: the amount of reagent, the time to read-out.

- Purpose: 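Kinome-wide siRNA search for kinases acting with BYL719, cetuximab or trametinib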 (primary screen)
- Cell system: HT115 colorectal cancer cells
- Reagents: siRNA pool against human genes
- Challenge: anchor drug given one day after siRNA: BYL719 at 1 µM, cetuximab at 5 µg/ml, trametinib at 10 nM, or DMSO vehicle alone
- Detection: 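Per-drug synergy scores plus replicate-mean viability relative to non-targeting pool #2 wells, also expressed as a robust z-score based on control wells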
- Reading the numbers: robust z-score, knock-down alone: higher = more viable cells after knock-down; viability, DMSO vs non-targeting control: higher = more viable cells
- Call rule: 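a gene counts as essential when its robust z-score with knock-down alone is below -3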
- Meaning of the calls: active = essential (z below -3, no drug); inactive = no change without drug

PFKFB3 scored robust z-score, knock-down alone 0.789; viability, DMSO vs non-targeting control (fraction of control) = 1; inactive.
After knock-down of CDK9 the results were robust z-score, knock-down alone -0.145; viability, DMSO vs non-targeting control (fraction of control) = 0.914; inactive.
CRKL showed robust z-score, knock-down alone 0.789; viability, DMSO vs non-targeting control (fraction of control) = 1; inactive.
For NUAK2, the entry reads robust z-score, knock-down alone -0.176; viability, DMSO vs non-targeting control (fraction of control) = 0.911; inactive.
With knock-down of MAP2K6, the screen gave robust z-score, knock-down alone 0.789; viability, DMSO vs non-targeting control (fraction of control) = 1; inactive.

2 entries from above, set out differently.
target | robust z-score, knock-down alone | viability, DMSO vs non-targeting control (fraction of control) | activity call
NUAK2 | -0.176 | 0.911 | inactive
MAP2K6 | 0.789 | 1 | inactive

The listing continues.
After knock-down of RPS6KC1, the record shows robust z-score, knock-down alone -0.362; viability, DMSO vs non-targeting control (fraction of control) = 0.894; inactive.
After knock-down of PRKCI, the record shows robust z-score, knock-down alone -0.839; viability, DMSO vs non-targeting control (fraction of control) = 0.849; inactive.
CDK10 scored robust z-score, knock-down alone -0.389; viability, DMSO vs non-targeting control (fraction of control) = 0.891; inactive.
Knock-down of UCKL1 resulted in: robust z-score, knock-down alone 0.789; viability, DMSO vs non-targeting control (fraction of control) = 1; inactive.
Depletion of PACSIN1 resulted in: robust z-score, knock-down alone 0.289; viability, DMSO vs non-targeting control (fraction of control) = 0.954; inactive.
Depletion of RBKS gave: robust z-score, knock-down alone 0.713; viability, DMSO vs non-targeting control (fraction of control) = 0.993; inactive.
CAMK2B gave robust z-score, knock-down alone 0.789; viability, DMSO vs non-targeting control (fraction of control) = 1; inactive.
